Reference: publication PMC7819943, “Rice protein-binding microarrays: a tool to detect cis-acting elements near promoter regions in rice”
The other results are listed elsewhere or left out.

target: T1, OsSMF1 (Oryza sativa, UniProt Q6ZLB0 1-436); assay: protein-binding microarray (RPBM); PBS, 2% BSA, 51.3 ng/ul salmon testes DNA, 50 uM zinc acetate, 200 nM TF, 25 C, 1 h; high values mean tight binding; settings: protein: recombinant; tags: N-terminal polyhistidine and DsRed monomer fusion (pET32a); chain copies: 2; label: CyDye5-dUTP incorporated in the synthesized complementary strand; 3' TTTTT single-stranded linker to array surface; dsDNA, one strand shown
T1 sequence: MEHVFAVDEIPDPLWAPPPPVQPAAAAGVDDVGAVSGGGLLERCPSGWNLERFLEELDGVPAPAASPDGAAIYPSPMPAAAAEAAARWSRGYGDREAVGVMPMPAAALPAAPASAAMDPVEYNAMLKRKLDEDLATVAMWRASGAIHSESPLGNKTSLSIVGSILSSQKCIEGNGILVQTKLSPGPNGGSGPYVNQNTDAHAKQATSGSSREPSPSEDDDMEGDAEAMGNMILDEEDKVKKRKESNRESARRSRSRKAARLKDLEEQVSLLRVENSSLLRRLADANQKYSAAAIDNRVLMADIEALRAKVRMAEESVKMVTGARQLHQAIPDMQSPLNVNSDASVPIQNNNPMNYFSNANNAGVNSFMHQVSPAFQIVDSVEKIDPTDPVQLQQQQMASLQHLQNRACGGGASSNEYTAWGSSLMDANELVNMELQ
Method in brief: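 In PBS with 2% BSA, salmon testes DNA and 50 µM zinc acetate, 200 nM protein was incubated on a custom Agilent array at 25 °C for 1 h and then washed off. The array had been made double-stranded by primer extension with Cy5-dUTP and blocked with 2% BSA. The proteins were transcription factors fused N-terminally to polyhistidine and DsRed, expressed in E. coli BL21-CodonPlus and purified on Ni–NTA. The binding signal is per-feature fluorescence intensity (arbitrary units) from an Axon 4000B scanner.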

Sequence	binding signal
GTGATGATTGTTAGTGGATGATGATGTGGCATCTTGTTAACGGAGTCACCTAGTGCAG	17800 fluorescence intensity (a.u.)
GCCGATCCCCGAGGAGGGCGGCGACGTGGAAGGGGAGGGCCGGAGTCACCTAGTGCAG	4090 fluorescence intensity (a.u.)
TTGTTTTGTGTGCCCGGGGATGAAGTTCCCCACCATAACACGGAGTCACCTAGTGCAG	21800 fluorescence intensity (a.u.)
TTCCTCTCCTCTCTCTCTCACACACACTTTCTACTCTCTCCGGAGTCACCTAGTGCAG	28200 fluorescence intensity (a.u.)
TGGAAGTGAGTTGGGTATGAGCTGGATCGCGTGAAATAGTCGGAGTCACCTAGTGCAG	4790 fluorescence intensity (a.u.)
TCTTATTTATGTGCATCCCTCGCTATGACTAATCTTGTCTCGGAGTCACCTAGTGCAG	3540 fluorescence intensity (a.u.)
AGATAAAAGAGTATTTCAATACGGAATGATCTTGCAGCGTCGGAGTCACCTAGTGCAG	3710 fluorescence intensity (a.u.)
ACCGCAGAGACACCGCGTGGGACCCACGCGCCATCGTGTACGGAGTCACCTAGTGCAG	3350 fluorescence intensity (a.u.)
TCGGATCTAATTGCCACGTAAACGCCACTTCAATGACATGCGGAGTCACCTAGTGCAG	6780 fluorescence intensity (a.u.)
TCTGACCCGCCGGTGGCCAAACTCCGCCGCCACCACGAACCGGAGTCACCTAGTGCAG	3260 fluorescence intensity (a.u.)
GACGGTAACTGCTGCGTCCACTATGACGTGTTCTGTTCGGCGGAGTCACCTAGTGCAG	9720 fluorescence intensity (a.u.)
CACAATATCAATTTTCTCGCTAAGACATTGACCAGTCAACCGGAGTCACCTAGTGCAG	3340 fluorescence intensity (a.u.)
AGGGCCCCGGCCCCGGCCTCACGTGGCGGCCGCCCGACCCCGGAGTCACCTAGTGCAG	6200 fluorescence intensity (a.u.)
ACCTTCTAGTATTCTCCCGTCCAGCGCATCTGGACCGTCCCGGAGTCACCTAGTGCAG	3410 fluorescence intensity (a.u.)
GAGGAAGAAGAATAGATAATAGAGGCTGACATGTGGGCCCCGGAGTCACCTAGTGCAG	3260 fluorescence intensity (a.u.)
GTACTATATGACTGGTGTTACTCTCTAGTTTGTATCCAATCGGAGTCACCTAGTGCAG	3400 fluorescence intensity (a.u.)
GGCTCATCTTATCATCATTGCATCACAACAAATCTACATGCGGAGTCACCTAGTGCAG	3450 fluorescence intensity (a.u.)
GGTTGGGCGGGCGAGGAGGTGTGCCACGTCAGAATTTTGCCGGAGTCACCTAGTGCAG	20200 fluorescence intensity (a.u.)
TTTTATTAACTGTAAACGTCACATGTTCTGTCATACGCGTCGGAGTCACCTAGTGCAG	4910 fluorescence intensity (a.u.)
GTGGTCAAGAGCTTTGTTTTCTTTGTCACTTTTCATTATTCGGAGTCACCTAGTGCAG	3350 fluorescence intensity (a.u.)
ATTGGATGCTGAATTGATGAGTACATACGTATACGTATACCGGAGTCACCTAGTGCAG	4160 fluorescence intensity (a.u.)

3 consecutive entries already listed, quoted:
Sequence	binding signal
AGATAAAAGAGTATTTCAATACGGAATGATCTTGCAGCGTCGGAGTCACCTAGTGCAG	3710 fluorescence intensity (a.u.)
ACCGCAGAGACACCGCGTGGGACCCACGCGCCATCGTGTACGGAGTCACCTAGTGCAG	3350 fluorescence intensity (a.u.)
TCGGATCTAATTGCCACGTAAACGCCACTTCAATGACATGCGGAGTCACCTAGTGCAG	6780 fluorescence intensity (a.u.)

Remaining list, next part.

Sequence	binding signal
CAAATTTTAATCCTAGAAAAGCTTATATTTGAAGGAGAAGCGGAGTCACCTAGTGCAG	31100 fluorescence intensity (a.u.)
GTTGTGTATCTATCCTACGTGGCATACTGAGGTAACGCAACGGAGTCACCTAGTGCAG	16500 fluorescence intensity (a.u.)
CCTCTCTCTGTGTGTTTGTGTCACACTCACGCTGAGCTTGCGGAGTCACCTAGTGCAG	3640 fluorescence intensity (a.u.)
GTCTCCACCTGTCCCACGTGGACCAATCACACTCAGCCAGCGGAGTCACCTAGTGCAG	7480 fluorescence intensity (a.u.)
CAATTCCCTCTTCGTCGGGTGCATCGGCCGCCCACCAAGCCGGAGTCACCTAGTGCAG	7430 fluorescence intensity (a.u.)
TTCCATCGCTATTTATAGGAGTGATATCACACGCAGCAAACGGAGTCACCTAGTGCAG	3340 fluorescence intensity (a.u.)
CACTGGCAACGTCGAGAGCCACTGTGTCACTGGTCGCCGACGGAGTCACCTAGTGCAG	4150 fluorescence intensity (a.u.)
CGATCCACTCCAATCCAATGTGAAATCTCAGCCCACTCAACGGAGTCACCTAGTGCAG	6510 fluorescence intensity (a.u.)
CTCTTCTGGACCTGTCCGTGCGGGATGCTCAAGGCCGGCGCGGAGTCACCTAGTGCAG	3210 fluorescence intensity (a.u.)
TTTATGTAAATTTAGCTACAAGTTGCCATGTGTGCTTATCCGGAGTCACCTAGTGCAG	3390 fluorescence intensity (a.u.)
CGTGAGGTACGAGAGCGCGGCCTTCTTCGACCAGGCCACGCGGAGTCACCTAGTGCAG	3590 fluorescence intensity (a.u.)
TATATATATATATATATATATATATATATGTGTGTGTGTGCGGAGTCACCTAGTGCAG	3520 fluorescence intensity (a.u.)
ACGGTGAACCAAAGCCCACGTCATCGAACGGATACTGTTTCGGAGTCACCTAGTGCAG	13000 fluorescence intensity (a.u.)
GCATTCACCTTGCTTGACTGTAATTGAGTCATTGCTGTACCGGAGTCACCTAGTGCAG	6490 fluorescence intensity (a.u.)
TTTGTGTGTTTAGTTTCTTACGTTTATAATTTTCTGAGTTCGGAGTCACCTAGTGCAG	3210 fluorescence intensity (a.u.)
GCCCATGAGTCCGTGACGGCTTCTTCGCCACCTTCCTCCCCGGAGTCACCTAGTGCAG	3300 fluorescence intensity (a.u.)
AGAAATCAACTTCAAACCTTTATTCTCAACATCAGGAGATCGGAGTCACCTAGTGCAG	26000 fluorescence intensity (a.u.)
CTGCTTGACCATGGAGTACGTCACAGTTGCTGTCACATGACGGAGTCACCTAGTGCAG	5360 fluorescence intensity (a.u.)
CATGATACTGTAGATCAAGAAGTTGTAAAATGATAATGAACGGAGTCACCTAGTGCAG	23600 fluorescence intensity (a.u.)
AATACTGGATATCTCCGCTTCCACCTCAGTTGATGCGGCGCGGAGTCACCTAGTGCAG	3760 fluorescence intensity (a.u.)
TCGTGCCACTCCAACAACGTCCACATCACCTGCGCGCCGCCGGAGTCACCTAGTGCAG	4980 fluorescence intensity (a.u.)
